“Also recorded” adds a separate entry of the source.
Assay: fluorescence/Mg2+ titration of the indicators (emission spectra, apparent dissociation constants)
Assay type: binding
Conditions: for Emission, fluorescence maximum upon saturation of the indicator: after the arrow, saturated with Mg^2+; for Emission, fluorescence maximum upon saturation of the indicator / Emission, fluorescence maximum of the free indicator: pH 7.2; for Emission, fluorescence maximum of the free indicator: before the arrow; for bathochromic shift of the fluorescence emission upon binding Mg^2+: free versus Mg^2+-saturated indicator; for crossover point of the emission spectra: Mg^2+ titration

1-[N,N-di(carboxymethyl)]-4-oxo-4H-quinolizine-3-carboxylic acid [Compound 11a]
Emission, fluorescence maximum upon saturation of the indicator: 548 nm
Emission, fluorescence maximum of the free indicator: 552 nm
hypsochromic shift of the fluorescence maximum with respect to 4-oxo-4H-quinolizine-3-carboxylic acid (1a) (free indicator versus 1a): 117 nm
bathochromic shift of the fluorescence emission upon binding Mg^2+: 4 nm
change of the fluorescence emission when binding Mg^2+ (increasing Mg^2+ levels): increase of the fluorescence emission

O=C(O)c1ccc2ccccn2c1=O [Compound 1a, 4-oxo-4H-quinolizine-3-carboxylic acid]
crossover point of the emission spectra: 437 nm
Emission, fluorescence maximum upon saturation of the indicator: 408 nm
Emission, fluorescence maximum of the free indicator: 435 nm
bathochromic shift of the fluorescence emission upon binding Mg^2+: 23 nm

O=C(O)c1ccc2cc(Cl)ccn2c1=O [Compound 2a, 4-oxo-8-chloro-4H-quinolizine-3-carboxylic acid]
Emission, fluorescence maximum upon saturation of the indicator: 418 nm
Emission, fluorescence maximum of the free indicator: 445 nm

O=C(O)c1ccc2ccc3ccccc3n2c1=O [Compound 3a, [6,7]benzo-4-oxo-4H-quinolizine-3-carboxylic acid]
Emission, fluorescence maximum upon saturation of the indicator: 467 nm
Emission, fluorescence maximum of the free indicator: 485 nm

O=C(O)c1cc(Br)c2ccccn2c1=O [Compound 9a, 1-bromo-4-oxo-4H-quinolizine-3-carboxylic acid]
separation of the fluorescence maxima of free and Mg^2+-bound indicator: well-separated fluorescence maxima; also recorded: fully separated fluorescence maxima
crossover point of the emission spectra: 446 nm
Emission, fluorescence maximum upon saturation of the indicator: 442 nm
Emission, fluorescence maximum of the free indicator: 460 nm
bathochromic shift of the fluorescence emission upon binding Mg^2+: 18 nm

O=C(O)C(=Cc1cc(C(=O)O)c(=O)n2ccccc12)C(=O)O [Compound 12a, 1-(2,2-dicarboxyvinyl)-4-oxo-4H-quinolizine-3-carboxylic acid]
Emission, fluorescence maximum upon saturation of the indicator: 461 nm
Emission, fluorescence maximum of the free indicator: 466 nm

O=C(O)c1cc(CC(C(=O)O)C(=O)O)c2ccccn2c1=O [Compound 13a, 1-(2,2-dicarboxyethyl)-4-oxo-4H-quinolizine-3-carboxylic acid]
Emission, fluorescence maximum upon saturation of the indicator: 429 nm
Emission, fluorescence maximum of the free indicator: 456 nm

Nc1ccn2c(=O)c(C(=O)O)ccc2c1 [Compound 15a, 8-amino-4-oxo-4H-quinolizine-3-carboxylic acid]
Emission, fluorescence maximum upon saturation of the indicator: 396 nm
Emission, fluorescence maximum of the free indicator: 406 nm

O=C(O)Cc1ccn2c(=O)c(C(=O)O)ccc2c1 [Compound 19a, 8-(carboxymethyl)-4-oxo-4H-quinolizine-3-carboxylic acid]
separation of the fluorescence maxima of free and Mg^2+-bound indicator: overlap of the fluorescence spectra
Emission, fluorescence maximum upon saturation of the indicator: 410 nm
Emission, fluorescence maximum of the free indicator: 432 nm

O=C(O)CC(C(=O)O)c1ccn2c(=O)c(C(=O)O)ccc2c1 (stereo not drawn) [Compound 20a, 8-(1,2-dicarboxyethyl)-4-oxo-4H-quinolizine-3-carboxylic acid]
separation of the fluorescence maxima of free and Mg^2+-bound indicator: overlap of the fluorescence spectra
Emission, fluorescence maximum upon saturation of the indicator: 411 nm
Emission, fluorescence maximum of the free indicator: 432 nm

O=C(O)CC(C(=O)O)c1ccn2c(=O)c(C(=O)O)cc(Br)c2c1 (stereo not drawn) [Compound 21a, 1-bromo-8-(1,2-dicarboxyethyl)-4-oxo-4H-quinolizine-3-carboxylic acid]
separation of the fluorescence maxima of free and Mg^2+-bound indicator: well-separated fluorescence maxima; also recorded: fully separated fluorescence maxima
crossover point of the emission spectra: 451 nm
Emission, fluorescence maximum upon saturation of the indicator: 437 nm
Emission, fluorescence maximum of the free indicator: 463 nm
bathochromic shift of the fluorescence emission upon binding Mg^2+: 26 nm

COc1ccc(-c2ccn3c(=O)c(C(=O)O)ccc3c2)cc1 [Compound 22a, 8-(4-methoxyphenyl)-4-oxo-4H-quinolizine-3-carboxylic acid]
Emission, fluorescence maximum upon saturation of the indicator: 444 nm
Emission, fluorescence maximum of the free indicator: 470 nm

O=C(O)c1ccc2cc(-c3cccc4ccccc34)ccn2c1=O [Compound 23a, 8-(naphth-1-yl)-4-oxo-4H-quinolizine-3-carboxylic acid]
Emission, fluorescence maximum upon saturation of the indicator: 456 nm
Emission, fluorescence maximum of the free indicator: 490 nm

O=C(O)c1ccc2cc(-c3cc4ccccc4o3)ccn2c1=O [Compound 24a, 8-benzo[b]furyl-4-oxo-4H-quinolizine-3-carboxylic acid]
Emission, fluorescence maximum upon saturation of the indicator: 459 nm
Emission, fluorescence maximum of the free indicator: 496 nm
bathochromic shift of the fluorescence emission upon binding Mg^2+: 37 nm

Source: patent US6706528B2, “Fluorescent magnesium indicators” (The United States of America as represented by the …, priority 2000, dated 2004)
